Results on 1 substance are retold here after paper PMC1249560.

This assay addresses T1, Hermansky-Pudlak syndrome type-3 protein (HPS3) (human (endogenous in primary epidermal melanocytes)) (UniProt Q969F9).
T1 sequence: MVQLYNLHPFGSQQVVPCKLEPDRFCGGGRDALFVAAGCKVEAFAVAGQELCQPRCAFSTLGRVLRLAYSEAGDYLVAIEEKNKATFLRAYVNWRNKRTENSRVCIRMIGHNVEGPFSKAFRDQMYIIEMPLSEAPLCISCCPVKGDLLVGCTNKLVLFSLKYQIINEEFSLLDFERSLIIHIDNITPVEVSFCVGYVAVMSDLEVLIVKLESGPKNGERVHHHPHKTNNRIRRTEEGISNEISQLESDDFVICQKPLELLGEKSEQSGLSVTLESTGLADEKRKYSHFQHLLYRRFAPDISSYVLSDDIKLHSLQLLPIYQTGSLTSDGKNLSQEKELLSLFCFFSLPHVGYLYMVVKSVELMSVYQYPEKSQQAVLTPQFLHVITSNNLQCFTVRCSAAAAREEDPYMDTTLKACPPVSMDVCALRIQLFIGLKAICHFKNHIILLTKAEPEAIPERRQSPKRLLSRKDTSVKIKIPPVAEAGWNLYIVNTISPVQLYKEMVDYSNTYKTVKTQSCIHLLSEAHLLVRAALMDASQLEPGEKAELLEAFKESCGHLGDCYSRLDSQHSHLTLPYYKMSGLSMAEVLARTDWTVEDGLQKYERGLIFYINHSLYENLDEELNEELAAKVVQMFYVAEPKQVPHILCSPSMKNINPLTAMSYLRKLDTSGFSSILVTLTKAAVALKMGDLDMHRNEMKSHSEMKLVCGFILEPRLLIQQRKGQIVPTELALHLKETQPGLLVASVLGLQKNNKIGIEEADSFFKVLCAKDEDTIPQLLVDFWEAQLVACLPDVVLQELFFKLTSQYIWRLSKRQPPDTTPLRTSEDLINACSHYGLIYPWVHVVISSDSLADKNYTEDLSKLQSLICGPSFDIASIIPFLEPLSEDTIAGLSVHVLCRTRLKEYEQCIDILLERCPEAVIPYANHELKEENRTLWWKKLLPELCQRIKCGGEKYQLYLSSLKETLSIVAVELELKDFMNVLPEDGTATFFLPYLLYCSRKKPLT
Kind of assay: co-IP; lysates of normal human melanocytes in PBS with 1% NP-40 and protease inhibitors; precipitated with rabbit polyclonal HPS3 peptide antibody and protein A/G agarose; blotted with mouse monoclonal anti-clathrin heavy chain antibodies; HPS3 null melanocyte lysate as control.

No constants are given. Whether binding was seen depends on the method and setting. In cells and extracts the contact can be indirect. A result given as binding can be weak or reduced; the word gives no strength.

In the case of “clathrin (detected by antibodies to its heavy chain)”, the binding entry is recorded as “binds”.
